Experimental data taken from patent US20100150834A1, “HIGH AFFINITY EPHB RECEPTOR BINDING COMPOUNDS AND METHODS OF USE THEREOF” (priority 2006, published 2010).
Results are given in words; binding and its absence hold for the method and conditions named. Some results given as binding are weak or reduced against the parent protein; the word gives no strength.

The chains behind the UniProt entries cited, without tags or fusion partners. Where a name states a change or a piece, a line headed by the entry shows the natural chain unless it says otherwise.
UniProt P52800: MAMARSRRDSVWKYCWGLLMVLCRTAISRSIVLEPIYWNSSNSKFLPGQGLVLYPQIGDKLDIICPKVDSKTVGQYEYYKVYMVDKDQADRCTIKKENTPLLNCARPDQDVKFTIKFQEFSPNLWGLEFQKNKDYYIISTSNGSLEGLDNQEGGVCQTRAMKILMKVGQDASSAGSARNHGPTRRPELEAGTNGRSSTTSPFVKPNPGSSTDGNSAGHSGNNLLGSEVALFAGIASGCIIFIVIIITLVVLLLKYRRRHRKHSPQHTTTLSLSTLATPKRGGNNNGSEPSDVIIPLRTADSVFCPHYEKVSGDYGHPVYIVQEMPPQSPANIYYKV

Molecular target: T1, murine EphB4-Alkaline Phosphatase (murine) (UniProt P54761)
T1 sequence (looked up): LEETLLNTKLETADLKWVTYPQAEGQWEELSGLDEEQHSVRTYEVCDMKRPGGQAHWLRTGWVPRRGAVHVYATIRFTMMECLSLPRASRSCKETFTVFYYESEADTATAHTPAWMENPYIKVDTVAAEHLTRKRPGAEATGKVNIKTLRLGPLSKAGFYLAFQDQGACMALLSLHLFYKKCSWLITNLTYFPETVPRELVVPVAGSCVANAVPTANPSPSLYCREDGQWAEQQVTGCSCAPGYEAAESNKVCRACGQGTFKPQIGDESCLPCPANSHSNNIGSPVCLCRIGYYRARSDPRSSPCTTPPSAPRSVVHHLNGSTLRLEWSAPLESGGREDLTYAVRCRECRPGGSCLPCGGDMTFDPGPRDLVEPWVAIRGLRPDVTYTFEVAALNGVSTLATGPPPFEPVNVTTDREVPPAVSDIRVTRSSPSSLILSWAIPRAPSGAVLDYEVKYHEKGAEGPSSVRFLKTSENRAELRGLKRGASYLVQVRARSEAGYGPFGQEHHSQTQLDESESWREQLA
Assay: ELISA binding curve: ephrin-B2 Fc immobilised, increasing volumes of murine EphB4 AP, OD405; one experiment

- binding: binds
Substance: ephrin-B2 Fc (Example 7) (from UniProt P52800 29-232) (Fc fusion)
